The supplement of paper PMC11006884
This list holds what a sample rich in targets with a hit left over. This is a noisy data set. Only a part is listed here, and it is no random draw.

Protein sequences, listed by entry. Tags and fused reporters are not part of them. Lines headed by an entry give the natural chain unless they say otherwise; changes in a name come on top.
UniProt O43148, whole entry, looked up: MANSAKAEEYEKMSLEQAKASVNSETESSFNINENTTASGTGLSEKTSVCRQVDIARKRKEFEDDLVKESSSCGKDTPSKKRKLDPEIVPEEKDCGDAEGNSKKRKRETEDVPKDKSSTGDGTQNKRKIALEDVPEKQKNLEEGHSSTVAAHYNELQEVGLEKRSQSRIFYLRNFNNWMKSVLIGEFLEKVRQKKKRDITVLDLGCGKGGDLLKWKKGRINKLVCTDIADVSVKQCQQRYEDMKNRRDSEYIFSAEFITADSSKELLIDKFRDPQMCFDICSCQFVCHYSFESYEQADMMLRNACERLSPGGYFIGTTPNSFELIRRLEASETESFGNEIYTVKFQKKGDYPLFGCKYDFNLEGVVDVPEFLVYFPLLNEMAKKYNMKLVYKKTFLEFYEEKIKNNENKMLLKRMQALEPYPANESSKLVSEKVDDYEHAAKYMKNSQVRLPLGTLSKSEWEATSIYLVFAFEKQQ
UniProt O15371, whole entry, looked up: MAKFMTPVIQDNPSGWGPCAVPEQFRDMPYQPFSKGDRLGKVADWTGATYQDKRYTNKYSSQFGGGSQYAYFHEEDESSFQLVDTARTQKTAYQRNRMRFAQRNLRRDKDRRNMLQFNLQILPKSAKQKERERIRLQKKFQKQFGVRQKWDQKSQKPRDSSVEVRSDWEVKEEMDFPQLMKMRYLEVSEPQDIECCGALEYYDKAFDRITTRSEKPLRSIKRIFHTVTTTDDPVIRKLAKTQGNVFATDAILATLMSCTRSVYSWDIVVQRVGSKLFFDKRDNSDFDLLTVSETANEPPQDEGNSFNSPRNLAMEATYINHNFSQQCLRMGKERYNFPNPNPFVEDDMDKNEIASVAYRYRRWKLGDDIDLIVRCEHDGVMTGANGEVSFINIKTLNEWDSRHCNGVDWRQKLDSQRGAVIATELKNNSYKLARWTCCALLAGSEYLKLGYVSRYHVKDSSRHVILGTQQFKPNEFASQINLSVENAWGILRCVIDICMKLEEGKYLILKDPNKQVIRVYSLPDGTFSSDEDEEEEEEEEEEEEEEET
UniProt O00151: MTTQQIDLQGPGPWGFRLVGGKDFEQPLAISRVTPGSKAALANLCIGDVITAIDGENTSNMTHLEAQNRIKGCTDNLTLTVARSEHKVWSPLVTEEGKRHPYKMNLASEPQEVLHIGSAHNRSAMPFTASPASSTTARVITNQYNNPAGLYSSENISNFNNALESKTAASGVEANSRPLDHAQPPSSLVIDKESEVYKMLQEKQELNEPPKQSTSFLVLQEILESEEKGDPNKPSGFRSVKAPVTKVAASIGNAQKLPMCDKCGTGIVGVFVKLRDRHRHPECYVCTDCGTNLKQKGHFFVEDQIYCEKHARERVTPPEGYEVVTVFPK
UniProt O15550, whole entry, looked up: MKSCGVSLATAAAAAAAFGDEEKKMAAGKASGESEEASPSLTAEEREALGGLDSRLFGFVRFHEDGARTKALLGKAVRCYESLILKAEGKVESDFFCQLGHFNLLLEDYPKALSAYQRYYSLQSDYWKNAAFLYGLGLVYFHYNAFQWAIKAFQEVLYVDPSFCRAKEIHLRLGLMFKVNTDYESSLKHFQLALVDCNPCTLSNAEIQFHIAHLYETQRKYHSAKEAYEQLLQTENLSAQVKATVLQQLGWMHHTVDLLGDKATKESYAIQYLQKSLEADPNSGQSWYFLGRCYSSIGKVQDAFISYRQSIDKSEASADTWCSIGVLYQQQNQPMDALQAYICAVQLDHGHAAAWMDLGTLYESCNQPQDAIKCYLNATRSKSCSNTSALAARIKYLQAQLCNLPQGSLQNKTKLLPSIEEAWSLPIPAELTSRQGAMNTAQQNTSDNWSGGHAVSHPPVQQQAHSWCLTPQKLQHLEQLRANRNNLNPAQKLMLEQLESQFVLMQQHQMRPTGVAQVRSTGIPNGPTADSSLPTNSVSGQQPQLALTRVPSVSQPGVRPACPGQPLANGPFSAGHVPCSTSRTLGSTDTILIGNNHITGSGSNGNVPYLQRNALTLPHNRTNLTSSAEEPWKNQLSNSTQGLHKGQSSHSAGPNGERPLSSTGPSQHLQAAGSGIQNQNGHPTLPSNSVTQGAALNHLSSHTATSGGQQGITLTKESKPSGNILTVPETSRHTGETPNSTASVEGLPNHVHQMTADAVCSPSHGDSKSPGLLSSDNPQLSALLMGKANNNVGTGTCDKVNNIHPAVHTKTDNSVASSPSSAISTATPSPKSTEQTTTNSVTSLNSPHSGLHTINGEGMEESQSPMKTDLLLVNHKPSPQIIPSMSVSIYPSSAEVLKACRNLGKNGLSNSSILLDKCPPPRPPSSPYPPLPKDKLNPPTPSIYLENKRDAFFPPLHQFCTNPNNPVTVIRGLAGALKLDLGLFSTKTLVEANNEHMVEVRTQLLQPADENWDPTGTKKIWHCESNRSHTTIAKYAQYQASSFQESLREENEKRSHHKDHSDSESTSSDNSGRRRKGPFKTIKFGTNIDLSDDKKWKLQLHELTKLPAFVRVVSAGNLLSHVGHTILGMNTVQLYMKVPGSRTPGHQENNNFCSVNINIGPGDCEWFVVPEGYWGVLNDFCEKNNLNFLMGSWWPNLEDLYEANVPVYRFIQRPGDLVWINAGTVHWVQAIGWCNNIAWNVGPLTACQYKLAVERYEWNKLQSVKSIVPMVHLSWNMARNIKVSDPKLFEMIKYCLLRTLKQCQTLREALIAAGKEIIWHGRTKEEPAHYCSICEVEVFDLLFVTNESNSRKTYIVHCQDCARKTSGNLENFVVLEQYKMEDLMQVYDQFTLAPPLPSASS
UniProt O15381: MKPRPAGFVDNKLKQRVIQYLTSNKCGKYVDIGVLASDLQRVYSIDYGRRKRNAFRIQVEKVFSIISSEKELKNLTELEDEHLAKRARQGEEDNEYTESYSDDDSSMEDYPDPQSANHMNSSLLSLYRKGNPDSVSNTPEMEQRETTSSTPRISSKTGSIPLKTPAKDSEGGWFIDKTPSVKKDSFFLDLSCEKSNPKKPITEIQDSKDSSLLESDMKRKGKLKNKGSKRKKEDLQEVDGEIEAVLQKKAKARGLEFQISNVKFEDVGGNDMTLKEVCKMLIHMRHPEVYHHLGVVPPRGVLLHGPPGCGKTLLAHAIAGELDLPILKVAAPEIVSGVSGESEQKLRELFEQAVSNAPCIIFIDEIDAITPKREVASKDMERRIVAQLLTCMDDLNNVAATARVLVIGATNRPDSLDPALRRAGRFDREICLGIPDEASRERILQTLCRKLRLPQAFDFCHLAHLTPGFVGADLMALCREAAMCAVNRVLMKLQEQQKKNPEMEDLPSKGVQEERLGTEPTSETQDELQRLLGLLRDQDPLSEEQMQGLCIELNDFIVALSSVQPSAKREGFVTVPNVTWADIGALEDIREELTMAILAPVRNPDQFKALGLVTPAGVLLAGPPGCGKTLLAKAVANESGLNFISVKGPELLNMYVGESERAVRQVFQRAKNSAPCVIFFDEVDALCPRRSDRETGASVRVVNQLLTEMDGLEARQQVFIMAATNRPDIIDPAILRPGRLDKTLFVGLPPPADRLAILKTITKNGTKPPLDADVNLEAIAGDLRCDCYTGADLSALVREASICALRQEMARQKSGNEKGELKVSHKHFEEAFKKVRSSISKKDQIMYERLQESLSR
UniProt O00411: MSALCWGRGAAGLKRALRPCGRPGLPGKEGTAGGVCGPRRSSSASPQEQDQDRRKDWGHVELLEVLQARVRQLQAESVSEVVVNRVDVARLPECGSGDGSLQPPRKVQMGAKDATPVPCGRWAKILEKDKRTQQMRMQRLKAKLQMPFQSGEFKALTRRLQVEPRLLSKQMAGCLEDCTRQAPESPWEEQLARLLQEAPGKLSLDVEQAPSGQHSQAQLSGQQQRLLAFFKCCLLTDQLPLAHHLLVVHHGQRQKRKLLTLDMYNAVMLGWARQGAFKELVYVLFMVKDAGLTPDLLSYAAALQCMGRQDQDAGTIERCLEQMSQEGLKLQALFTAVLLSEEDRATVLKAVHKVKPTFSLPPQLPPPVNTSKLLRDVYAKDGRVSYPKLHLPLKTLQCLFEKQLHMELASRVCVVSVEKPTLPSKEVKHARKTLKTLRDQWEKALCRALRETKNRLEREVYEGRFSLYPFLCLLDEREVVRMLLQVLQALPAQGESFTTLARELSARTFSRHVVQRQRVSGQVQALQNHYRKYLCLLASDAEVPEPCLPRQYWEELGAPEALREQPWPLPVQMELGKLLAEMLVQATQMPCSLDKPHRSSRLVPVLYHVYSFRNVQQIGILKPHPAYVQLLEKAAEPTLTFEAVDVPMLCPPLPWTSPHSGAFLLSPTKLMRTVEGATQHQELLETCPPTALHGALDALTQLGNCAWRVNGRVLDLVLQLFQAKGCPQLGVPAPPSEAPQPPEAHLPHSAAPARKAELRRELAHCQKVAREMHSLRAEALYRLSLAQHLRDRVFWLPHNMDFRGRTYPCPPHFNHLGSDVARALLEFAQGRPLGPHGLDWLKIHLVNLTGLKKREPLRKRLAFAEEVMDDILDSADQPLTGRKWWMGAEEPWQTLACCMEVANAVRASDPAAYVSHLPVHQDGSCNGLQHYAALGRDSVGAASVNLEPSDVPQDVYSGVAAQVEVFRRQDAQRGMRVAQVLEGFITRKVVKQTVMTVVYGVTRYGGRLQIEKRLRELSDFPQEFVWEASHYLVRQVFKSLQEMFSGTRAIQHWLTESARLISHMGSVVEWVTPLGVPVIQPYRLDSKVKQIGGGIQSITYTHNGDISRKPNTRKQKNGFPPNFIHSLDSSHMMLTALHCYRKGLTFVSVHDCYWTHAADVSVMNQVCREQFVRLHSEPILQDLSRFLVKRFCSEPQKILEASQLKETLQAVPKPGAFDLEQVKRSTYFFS
UniProt O15446, whole entry, looked up: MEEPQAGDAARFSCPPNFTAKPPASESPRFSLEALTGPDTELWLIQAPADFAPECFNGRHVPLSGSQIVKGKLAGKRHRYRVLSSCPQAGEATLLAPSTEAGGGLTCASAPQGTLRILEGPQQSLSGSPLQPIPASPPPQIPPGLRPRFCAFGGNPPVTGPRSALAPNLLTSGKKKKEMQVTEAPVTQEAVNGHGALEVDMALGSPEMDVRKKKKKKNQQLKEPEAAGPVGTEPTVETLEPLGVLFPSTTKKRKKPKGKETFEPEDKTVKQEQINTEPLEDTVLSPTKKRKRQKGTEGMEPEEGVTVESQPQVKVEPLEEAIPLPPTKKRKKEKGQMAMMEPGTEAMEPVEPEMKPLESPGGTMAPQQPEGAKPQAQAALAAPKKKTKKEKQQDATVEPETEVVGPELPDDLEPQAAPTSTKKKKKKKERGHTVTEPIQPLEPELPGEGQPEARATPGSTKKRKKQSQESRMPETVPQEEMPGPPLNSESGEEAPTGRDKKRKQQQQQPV
UniProt O14617: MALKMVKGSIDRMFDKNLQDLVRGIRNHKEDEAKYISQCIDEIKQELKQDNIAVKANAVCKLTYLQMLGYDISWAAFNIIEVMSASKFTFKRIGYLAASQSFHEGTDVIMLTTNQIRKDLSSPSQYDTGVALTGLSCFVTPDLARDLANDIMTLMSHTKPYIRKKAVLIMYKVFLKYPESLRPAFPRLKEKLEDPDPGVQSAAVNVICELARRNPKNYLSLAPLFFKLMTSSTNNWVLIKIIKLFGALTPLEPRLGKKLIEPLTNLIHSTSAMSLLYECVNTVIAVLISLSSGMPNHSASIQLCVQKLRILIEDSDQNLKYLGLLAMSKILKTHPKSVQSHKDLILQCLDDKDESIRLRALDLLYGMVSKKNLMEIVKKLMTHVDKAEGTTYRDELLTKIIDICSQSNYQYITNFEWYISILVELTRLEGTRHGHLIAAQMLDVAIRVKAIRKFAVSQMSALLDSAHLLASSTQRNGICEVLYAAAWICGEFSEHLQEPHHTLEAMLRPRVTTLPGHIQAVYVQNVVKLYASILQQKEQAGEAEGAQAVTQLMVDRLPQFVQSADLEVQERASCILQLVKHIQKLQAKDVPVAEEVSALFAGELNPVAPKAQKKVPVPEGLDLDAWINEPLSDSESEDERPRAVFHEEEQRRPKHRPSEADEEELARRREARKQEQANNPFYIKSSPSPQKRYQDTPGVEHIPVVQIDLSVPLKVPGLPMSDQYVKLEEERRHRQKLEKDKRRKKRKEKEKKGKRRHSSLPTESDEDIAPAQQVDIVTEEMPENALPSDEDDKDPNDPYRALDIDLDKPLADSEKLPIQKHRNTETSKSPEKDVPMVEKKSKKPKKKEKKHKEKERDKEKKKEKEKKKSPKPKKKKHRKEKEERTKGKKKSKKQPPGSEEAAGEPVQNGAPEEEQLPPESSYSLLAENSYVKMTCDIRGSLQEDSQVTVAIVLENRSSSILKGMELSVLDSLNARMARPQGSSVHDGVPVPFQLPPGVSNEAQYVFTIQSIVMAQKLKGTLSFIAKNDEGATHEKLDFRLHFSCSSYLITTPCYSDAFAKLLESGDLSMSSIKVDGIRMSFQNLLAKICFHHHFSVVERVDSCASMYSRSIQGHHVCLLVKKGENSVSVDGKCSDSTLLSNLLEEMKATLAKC

compound: COC(=O)/C=C/c1ccccc1 [methyl cinnamate]; test: log2 ratio of iodoacetamide-alkyne labeling of the cysteine site, DMSO over compound (competition); higher = stronger covalent engagement of the cysteine by the compound, active = 1 or more; conditions: 500 µM; treatment time 1 h; system: HEK293T cell lysate
How it was run: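 HEK293T lysate at 2 mg/mL was treated with vehicle or electrophile (500 µM) for 1 h at ambient temperature, then labelled with iodoacetamide alkyne (1 h), clicked to sCIP-TMT reagents, pooled, digested with trypsin overnight at 37 °C, enriched on streptavidin and eluted with acid. Peptides were analysed by Orbitrap Eclipse LC-MS/MS with FAIMS and quantified in FragPipe, using duplicate channels and three replicates, with cysteines quantified in only one replicate excluded. The log2 competition ratio for each cysteine is the mean control-channel reporter intensity divided by the mean compound-channel reporter intensity.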

log2 ratio of iodoacetamide-alkyne labeling, inactive:
DVL2 C80 (UniProt O14641) -0.0922
TRAFD1 C267 (UniProt O14545) 0.255
GNPAT C73 (UniProt O15228) 0.342
ZZEF1 C2466 (UniProt O43149) -0.217
RNMT C50 (UniProt O43148) 0.0342
EIF3D C19 (UniProt O15371) 0.00387
TRIM24 C56 (UniProt O15164) -0.107
UniProt O00148_C62 -0.415
CLIC1 C24 (UniProt O00299) 0.151
PDLIM1 C73 (UniProt O00151) 0.197
FAM171A2 C742 (UniProt A8MVW0) 0.0588
ARID1A C1827 (UniProt O14497) 0.33
XPO1 C327 (UniProt O14980) -0.0497
APAF1 C115 (UniProt O14727) 0.193
KDM6A C960 (UniProt O15550) -0.149
PPP6C C192 (UniProt O00743) -0.0767
DDX3X C298 (UniProt O00571) 0.254
UniProt O14979_C177 0.192
NVL C550 (UniProt O15381) -0.749
UniProt O14950_C109 0.289
AGPS C297 (UniProt O00116) 0.108
POLRMT C413 (UniProt O00411) 0.593
SIVA1 C6 (UniProt O15304) 0.209
POLRMT C925 (UniProt O00411) -0.13
PPM1G C13 (UniProt O15355) 0.246
NVL C192 (UniProt O15381) 0.186
CD3EAP C107 (UniProt O15446) 0.22
UniProt O14715_C1431 0.0959
PGRMC1 C129 (UniProt O00264) 0.27
KPNA4 C122 (UniProt O00629) 0.254
SPTBN2 C2043 (UniProt O15020) 0.0632
ARPC2 C120 (UniProt O15144) 0.0417
IRS4 C1055 (UniProt O14654) 0.109
NVL C391 (UniProt O15381) -0.116
IGF2BP3 C546 (UniProt O00425) 0.0958
PES1 C361 (UniProt O00541) 0.163
AP3D1 C137 (UniProt O14617) 0.0312

A stretch from further up, as a working copy:
log2 ratio of iodoacetamide-alkyne labeling, inactive:
UniProt O14950_C109 0.289
AGPS C297 (UniProt O00116) 0.108
